Assay: Monitoring absorbance/fluorescence during copper-catalyzed click reaction with alkyne
Format: physicochemical

COc1cc(OC)c(C2=C3C=CC(=[N+](C)C)C=C3[Si](C)(C)c3cc(N(C)C)ccc32)cc1N=[N+]=[N-] [Compound 9-N3, 3-Azido-4,6-dimethoxy-Si-rhodamine]
change of absorption under click reaction conditions: did not change significantly
